## Screening data

By UniProt entry, the sequences of proteins in these tests, tags left out.
UniProt O94925, whole entry, target on record: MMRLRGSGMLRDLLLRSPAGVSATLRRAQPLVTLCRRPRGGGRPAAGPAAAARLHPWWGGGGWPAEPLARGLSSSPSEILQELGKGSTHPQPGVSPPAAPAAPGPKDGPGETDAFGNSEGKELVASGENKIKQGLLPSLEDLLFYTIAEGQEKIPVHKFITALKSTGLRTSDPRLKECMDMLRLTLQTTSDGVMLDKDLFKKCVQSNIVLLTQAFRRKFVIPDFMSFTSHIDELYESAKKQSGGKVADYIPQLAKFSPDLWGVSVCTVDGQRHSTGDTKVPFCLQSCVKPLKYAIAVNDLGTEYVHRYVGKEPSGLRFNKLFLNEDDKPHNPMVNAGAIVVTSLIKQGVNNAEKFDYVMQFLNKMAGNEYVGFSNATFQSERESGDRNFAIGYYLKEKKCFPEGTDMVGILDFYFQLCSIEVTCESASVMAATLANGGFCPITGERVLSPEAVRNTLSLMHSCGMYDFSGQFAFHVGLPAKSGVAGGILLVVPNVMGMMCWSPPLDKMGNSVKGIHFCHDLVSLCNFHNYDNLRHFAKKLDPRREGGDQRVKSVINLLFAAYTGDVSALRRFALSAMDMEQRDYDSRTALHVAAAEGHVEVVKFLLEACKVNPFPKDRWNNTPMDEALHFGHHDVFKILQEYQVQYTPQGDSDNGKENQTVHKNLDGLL

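Inhibition of human glutaminase (kidney isoform) in a cell-free reaction, sensed through fluorescence rising as glutamate is converted by coupled enzymes, read after a half-hour incubation. Each compound was run as a five-point series from about 0.074 to 46 µM. The number is the fitted potency (AC50, nM) for enzyme inhibition; a lower value means a more potent inhibitor. Calls come from a 0–100 score set by curve class and fitted AC50, with 40–100 active, 1–39 inconclusive and 0 inactive; these rows show weak, partial, poorly fitted or single-point inhibition curves.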

Values are in nM. All entries here are filed as inconclusive. Only part of the assay is shown, chiefly results filed as inconclusive. Potencies fitted to partial, single-point or poorly fitting curves are rough. Activity scores are not listed here.

compound	Potency (nM)	remark
N[C@@H](Cc1ccc(O)c(O)c1)C(=O)O	35481	inhibitor, single point
CC(C)ON([C@@H](C(=O)NO)C(C)C)S(=O)(=O)c1ccc(-c2ccccc2)cc1	17782	inhibitor, partial curve, poor fit
COc1ccccc1N1CCN(CCCCNS(=O)(=O)c2cccc3c(N(C)C)cccc23)CC1	11220	inhibitor, partial curve
Cc1nc2c(OCc3ccccc3)cccn2c1CC#N	25118	inhibitor, single point
CC1=C(C(=O)O)N2C(=O)[C@@H](NC(=O)C(N)c3ccccc3)[C@H]2SC1 (stereo not given in full)	12589	inhibitor, partial curve, poor fit
CC(CCc1ccc(O)cc1)NCCc1ccc(O)c(O)c1 (stereo not given)	1585	inhibitor, partial curve
CC(C)(C)NCC(O)c1ccc(O)c(CO)c1 (stereo not given)	7080	inhibitor, partial curve, poor fit
CCN(CC)CC#CCOC(=O)C(O)(c1ccccc1)C1CCCCC1 (stereo not given)	25118	inhibitor, partial curve, poor fit
COc1ccc2c(c1)c(CC(=O)O)c(C)n2Cc1ccc(Cl)cc1	10000	inhibitor, partial curve
C[C@H](O)C(=O)C1=Nc2c(nc(N)[nH]c2=O)NC1	10000	inhibitor, partial curve
CN1CCN(CCCN2c3ccccc3Sc3ccc(Cl)cc32)CC1	3548	inhibitor, single point

The first 2 entries again:

With N[C@@H](Cc1ccc(O)c(O)c1)C(=O)O the assay gave Potency 35481 nM (inhibitor, single point).
With CC(C)ON([C@@H](C(=O)NO)C(C)C)S(=O)(=O)c1ccc(-c2ccccc2)cc1 the assay gave Potency 17782 nM (inhibitor, partial curve, poor fit).

From PubChem BioAssay record AID624146 (NCATS, 2012).